Assay results: US20180320194A1 (PURDUE RESEARCH FOUNDATION, published 2018)
Results are given in words; binding and its absence hold for the method and conditions named. Some binding calls cover weakened binding; strength is not graded here. For some assays here: Where a sequence is shown, tags or fusion partners need not be part of it.

By UniProt entry, the sequences of proteins in these tests, tags left out. Where a name states a change or a piece, a line headed by the entry shows the natural chain unless it says otherwise.
UniProt Q9FDW1: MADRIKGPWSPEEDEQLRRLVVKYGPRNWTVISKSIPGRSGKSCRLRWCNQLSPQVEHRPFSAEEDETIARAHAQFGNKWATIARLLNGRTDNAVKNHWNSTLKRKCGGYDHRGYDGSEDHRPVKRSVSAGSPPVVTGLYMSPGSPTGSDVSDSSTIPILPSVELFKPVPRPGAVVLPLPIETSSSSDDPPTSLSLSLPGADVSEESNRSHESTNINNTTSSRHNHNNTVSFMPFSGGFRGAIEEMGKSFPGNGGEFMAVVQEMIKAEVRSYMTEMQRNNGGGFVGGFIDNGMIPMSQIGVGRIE
UniProt P04386: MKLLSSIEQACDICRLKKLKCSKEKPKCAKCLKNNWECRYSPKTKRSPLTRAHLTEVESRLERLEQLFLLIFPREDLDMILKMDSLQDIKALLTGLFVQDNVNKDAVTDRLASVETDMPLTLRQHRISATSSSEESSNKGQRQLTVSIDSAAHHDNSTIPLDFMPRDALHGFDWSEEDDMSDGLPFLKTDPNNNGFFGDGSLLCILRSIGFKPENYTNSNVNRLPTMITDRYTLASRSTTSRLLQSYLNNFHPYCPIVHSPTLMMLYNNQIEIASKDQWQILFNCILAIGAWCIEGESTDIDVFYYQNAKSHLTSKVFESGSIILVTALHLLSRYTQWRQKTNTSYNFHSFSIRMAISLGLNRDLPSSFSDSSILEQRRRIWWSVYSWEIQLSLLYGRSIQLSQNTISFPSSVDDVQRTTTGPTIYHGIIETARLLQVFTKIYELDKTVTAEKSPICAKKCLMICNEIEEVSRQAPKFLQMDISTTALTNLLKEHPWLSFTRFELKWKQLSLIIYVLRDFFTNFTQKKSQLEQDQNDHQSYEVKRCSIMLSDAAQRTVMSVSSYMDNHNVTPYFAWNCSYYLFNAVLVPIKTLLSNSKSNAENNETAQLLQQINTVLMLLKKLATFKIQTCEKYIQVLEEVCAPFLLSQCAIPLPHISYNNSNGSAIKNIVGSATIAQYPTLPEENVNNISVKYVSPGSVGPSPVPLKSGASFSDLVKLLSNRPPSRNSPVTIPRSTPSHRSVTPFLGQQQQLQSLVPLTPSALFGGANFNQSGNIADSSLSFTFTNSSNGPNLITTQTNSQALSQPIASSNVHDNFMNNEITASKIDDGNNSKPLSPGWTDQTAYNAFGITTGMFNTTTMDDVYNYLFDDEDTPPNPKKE

T1: HAB2 (Arabidopsis) (UniProt Q9LNP9)
T1 sequence (looked up): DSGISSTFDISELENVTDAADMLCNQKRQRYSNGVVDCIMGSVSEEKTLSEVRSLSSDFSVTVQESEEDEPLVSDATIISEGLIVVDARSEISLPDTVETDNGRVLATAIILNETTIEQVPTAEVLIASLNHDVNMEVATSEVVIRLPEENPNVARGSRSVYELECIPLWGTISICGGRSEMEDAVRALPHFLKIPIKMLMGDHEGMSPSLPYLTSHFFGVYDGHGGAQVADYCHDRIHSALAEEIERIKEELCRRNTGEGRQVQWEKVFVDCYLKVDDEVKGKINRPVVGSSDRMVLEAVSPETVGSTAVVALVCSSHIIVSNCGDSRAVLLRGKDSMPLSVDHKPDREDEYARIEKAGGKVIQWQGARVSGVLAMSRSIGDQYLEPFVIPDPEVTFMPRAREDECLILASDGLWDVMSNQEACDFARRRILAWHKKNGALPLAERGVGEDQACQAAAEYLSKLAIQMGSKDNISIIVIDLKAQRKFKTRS


Legend:
[1] = target: MYB44 fused to the GAL4-activating domain (AD-MYB44) (UniProt Q9FDW1); assay: yeast two-hybrid, positive control
[2] = target: T1, HAB2 (Arabidopsis); assay: tandem affinity purification (anti-HA agarose, GFP-Trap) from seedlings, MS identification

Row | binding [1] | Molecule | binding [2]
1 | binds | PYL8 fused to the GAL4-DNA-binding domain (BD-PYL8) (from UniProt P04386 1-147; Q9FGM1 1-188) | 
2 |  | HA- and YFP-tagged PYL9 (PYL9-HA-YFP) (receptor, Expressed under the native PYL9 promoter in transgenic Arabidopsis seedlings; also called ProPYL9:PYL9-HA-YFP; not shown: 3HA tag at the C terminus; YFP tag at the C terminus) MMDGVEGGTAMYGGLETVQYVRTHHQHLCRENQCTSALVKHIKAPLHLVWSLVRRFDQPQKYKPFVSRCTVIGDPEIGSLREVNVKSGLPATTSTERLELLDDEEHILGIKIIGGDHRLKNYSSILTVHPEIIEGRAGTMVIESFVVDVPQGNTKDETCYFVEALIRCNLKSLADVSERLASQDITQ | binds
